Measured values from publication doi:10.1101/2025.08.25.672089.
Read-outs that look alike come from different tables or passages of the source. Results are given in words; binding and its absence hold for the method and conditions named. Binding seen in cells or lysates may run through a third protein. Some entries that bind do so weakly or less than the wild type.

Protein sequences, listed by entry. Tags and fused reporters are not part of them.
UniProt Q9UGL1: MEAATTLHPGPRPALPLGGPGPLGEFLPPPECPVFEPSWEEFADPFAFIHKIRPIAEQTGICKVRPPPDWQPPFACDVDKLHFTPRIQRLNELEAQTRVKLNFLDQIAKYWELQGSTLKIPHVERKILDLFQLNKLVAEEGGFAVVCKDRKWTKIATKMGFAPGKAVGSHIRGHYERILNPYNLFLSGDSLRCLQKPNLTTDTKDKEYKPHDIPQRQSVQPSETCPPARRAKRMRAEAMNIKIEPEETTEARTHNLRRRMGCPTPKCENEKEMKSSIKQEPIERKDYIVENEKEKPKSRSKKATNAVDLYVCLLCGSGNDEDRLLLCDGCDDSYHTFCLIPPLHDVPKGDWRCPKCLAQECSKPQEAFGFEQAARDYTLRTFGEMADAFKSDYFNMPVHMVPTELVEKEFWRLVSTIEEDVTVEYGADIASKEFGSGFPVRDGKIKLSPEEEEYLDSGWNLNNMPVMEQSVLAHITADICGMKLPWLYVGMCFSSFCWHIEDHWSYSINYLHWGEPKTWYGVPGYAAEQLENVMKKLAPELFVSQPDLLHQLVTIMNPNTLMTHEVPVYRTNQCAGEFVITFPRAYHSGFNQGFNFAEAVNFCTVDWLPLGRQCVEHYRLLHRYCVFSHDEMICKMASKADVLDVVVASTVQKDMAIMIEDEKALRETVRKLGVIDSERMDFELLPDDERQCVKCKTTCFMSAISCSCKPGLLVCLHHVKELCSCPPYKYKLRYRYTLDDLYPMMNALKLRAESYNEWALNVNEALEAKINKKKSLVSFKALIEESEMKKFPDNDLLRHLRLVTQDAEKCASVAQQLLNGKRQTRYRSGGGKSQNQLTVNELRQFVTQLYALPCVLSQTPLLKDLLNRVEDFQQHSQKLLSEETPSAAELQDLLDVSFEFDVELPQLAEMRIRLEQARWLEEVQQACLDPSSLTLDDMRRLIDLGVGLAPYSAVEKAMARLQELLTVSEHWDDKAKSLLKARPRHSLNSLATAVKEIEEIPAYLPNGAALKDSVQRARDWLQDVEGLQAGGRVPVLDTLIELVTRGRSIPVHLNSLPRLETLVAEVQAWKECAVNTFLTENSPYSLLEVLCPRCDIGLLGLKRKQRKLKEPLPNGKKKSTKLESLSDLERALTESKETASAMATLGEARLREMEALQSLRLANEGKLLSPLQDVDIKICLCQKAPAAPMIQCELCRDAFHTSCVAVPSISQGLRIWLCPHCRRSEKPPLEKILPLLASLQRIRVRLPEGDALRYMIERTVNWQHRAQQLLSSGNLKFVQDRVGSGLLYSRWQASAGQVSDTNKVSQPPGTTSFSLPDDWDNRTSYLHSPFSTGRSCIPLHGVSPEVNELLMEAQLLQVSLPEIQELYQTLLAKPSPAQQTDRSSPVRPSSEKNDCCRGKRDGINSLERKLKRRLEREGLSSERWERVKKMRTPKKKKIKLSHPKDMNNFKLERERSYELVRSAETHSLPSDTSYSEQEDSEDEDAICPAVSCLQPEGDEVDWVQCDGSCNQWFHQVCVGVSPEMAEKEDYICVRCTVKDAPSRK
UniProt Q01094: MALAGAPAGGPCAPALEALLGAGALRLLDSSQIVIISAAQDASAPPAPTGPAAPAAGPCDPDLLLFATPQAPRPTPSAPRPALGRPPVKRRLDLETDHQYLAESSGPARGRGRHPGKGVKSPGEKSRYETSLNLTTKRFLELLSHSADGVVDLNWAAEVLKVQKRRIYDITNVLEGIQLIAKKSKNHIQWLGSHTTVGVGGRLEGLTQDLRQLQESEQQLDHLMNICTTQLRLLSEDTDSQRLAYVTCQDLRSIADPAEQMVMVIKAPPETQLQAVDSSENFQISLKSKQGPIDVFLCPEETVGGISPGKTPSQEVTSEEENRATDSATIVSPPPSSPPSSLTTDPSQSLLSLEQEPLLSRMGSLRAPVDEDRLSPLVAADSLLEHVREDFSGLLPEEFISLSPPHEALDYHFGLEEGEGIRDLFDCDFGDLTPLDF
UniProt Q09472: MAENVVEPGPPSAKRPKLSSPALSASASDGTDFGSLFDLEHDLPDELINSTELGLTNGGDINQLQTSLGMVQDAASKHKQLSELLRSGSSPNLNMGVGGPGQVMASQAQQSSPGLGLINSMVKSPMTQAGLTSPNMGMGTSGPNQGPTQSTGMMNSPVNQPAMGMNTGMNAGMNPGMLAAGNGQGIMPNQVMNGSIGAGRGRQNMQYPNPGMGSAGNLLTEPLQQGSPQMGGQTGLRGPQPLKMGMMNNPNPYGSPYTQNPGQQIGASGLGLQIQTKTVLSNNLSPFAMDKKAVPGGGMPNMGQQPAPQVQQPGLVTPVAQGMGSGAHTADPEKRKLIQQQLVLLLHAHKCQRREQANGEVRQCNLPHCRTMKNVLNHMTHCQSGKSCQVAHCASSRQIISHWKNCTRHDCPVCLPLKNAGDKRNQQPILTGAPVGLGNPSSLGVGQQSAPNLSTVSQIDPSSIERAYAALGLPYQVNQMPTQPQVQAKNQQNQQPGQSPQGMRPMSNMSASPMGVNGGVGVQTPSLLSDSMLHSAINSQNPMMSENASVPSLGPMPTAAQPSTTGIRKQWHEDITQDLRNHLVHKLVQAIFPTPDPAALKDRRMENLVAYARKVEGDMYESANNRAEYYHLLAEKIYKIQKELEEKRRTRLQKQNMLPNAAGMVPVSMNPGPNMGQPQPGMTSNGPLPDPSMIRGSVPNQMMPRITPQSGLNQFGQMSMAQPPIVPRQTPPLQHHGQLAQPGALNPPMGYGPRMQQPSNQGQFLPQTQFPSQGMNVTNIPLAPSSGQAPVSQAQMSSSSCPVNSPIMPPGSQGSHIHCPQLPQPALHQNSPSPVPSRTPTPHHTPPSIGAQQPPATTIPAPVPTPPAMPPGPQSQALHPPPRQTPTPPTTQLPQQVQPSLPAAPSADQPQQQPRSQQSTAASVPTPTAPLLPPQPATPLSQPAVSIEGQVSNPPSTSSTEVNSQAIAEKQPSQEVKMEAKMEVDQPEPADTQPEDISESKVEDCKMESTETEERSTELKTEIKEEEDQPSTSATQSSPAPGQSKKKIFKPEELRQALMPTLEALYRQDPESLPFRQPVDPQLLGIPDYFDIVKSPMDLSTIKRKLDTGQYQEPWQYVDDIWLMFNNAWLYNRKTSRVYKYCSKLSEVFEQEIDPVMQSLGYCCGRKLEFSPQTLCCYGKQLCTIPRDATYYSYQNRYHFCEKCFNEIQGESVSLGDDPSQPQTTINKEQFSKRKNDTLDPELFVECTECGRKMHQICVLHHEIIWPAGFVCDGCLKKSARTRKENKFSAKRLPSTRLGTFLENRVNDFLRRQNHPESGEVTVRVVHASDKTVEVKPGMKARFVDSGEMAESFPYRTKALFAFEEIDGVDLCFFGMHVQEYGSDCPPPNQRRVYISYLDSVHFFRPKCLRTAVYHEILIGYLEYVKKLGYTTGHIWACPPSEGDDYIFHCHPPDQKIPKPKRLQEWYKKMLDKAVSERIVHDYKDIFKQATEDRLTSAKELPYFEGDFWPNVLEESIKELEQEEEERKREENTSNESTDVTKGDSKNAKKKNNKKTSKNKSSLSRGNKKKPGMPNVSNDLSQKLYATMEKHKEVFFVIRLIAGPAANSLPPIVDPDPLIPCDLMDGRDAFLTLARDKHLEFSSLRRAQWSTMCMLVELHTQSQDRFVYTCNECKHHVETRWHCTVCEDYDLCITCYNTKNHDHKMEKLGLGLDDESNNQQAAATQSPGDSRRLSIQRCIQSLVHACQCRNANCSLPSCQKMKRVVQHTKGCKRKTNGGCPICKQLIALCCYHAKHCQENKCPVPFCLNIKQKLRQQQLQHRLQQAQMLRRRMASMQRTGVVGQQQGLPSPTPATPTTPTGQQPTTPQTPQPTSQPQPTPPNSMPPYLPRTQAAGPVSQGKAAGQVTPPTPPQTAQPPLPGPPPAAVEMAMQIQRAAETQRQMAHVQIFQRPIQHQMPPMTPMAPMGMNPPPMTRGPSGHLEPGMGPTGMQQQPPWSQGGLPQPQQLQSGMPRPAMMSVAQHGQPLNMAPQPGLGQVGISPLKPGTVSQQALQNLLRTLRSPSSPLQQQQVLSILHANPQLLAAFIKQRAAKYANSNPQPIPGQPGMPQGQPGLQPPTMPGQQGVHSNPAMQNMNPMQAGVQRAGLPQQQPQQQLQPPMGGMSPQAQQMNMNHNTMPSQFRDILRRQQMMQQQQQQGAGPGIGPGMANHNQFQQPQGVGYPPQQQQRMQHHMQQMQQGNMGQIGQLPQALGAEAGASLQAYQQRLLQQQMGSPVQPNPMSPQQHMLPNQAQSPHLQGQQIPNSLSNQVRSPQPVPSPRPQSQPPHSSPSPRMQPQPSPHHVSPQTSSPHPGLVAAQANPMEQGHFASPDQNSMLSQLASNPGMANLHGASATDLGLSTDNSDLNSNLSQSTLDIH

Key:
Experiment in all cases: co-IP
[1] = biological target: KDM5B (human (endogenous in MCF7, K562 and A549)) (UniProt Q9UGL1)
[2] = biological target: KDM5B (human (endogenous in MCF7, K562 and A549)) (UniProt Q9UGL1); remark: listed apart in the source
[3] = biological target: E2F1 (human (endogenous in MCF7)) (UniProt Q01094)

Row | binding [1] | binding [2] | binding [3] | Substance
1 | binds | binds | – | Tumor suppressor p53 (from UniProt P04637 1-393)
2 | binds | binds | binds | p300 (from UniProt Q09472 1-2414) (enzyme)
